According to the supplement of paper PMC10849652:
The list shows a part of the results.

Protein sequences, listed by entry. Tags and fused reporters are not part of them. Lines headed by an entry give the natural chain unless they say otherwise; changes in a name come on top.
UniProt Q96RU3: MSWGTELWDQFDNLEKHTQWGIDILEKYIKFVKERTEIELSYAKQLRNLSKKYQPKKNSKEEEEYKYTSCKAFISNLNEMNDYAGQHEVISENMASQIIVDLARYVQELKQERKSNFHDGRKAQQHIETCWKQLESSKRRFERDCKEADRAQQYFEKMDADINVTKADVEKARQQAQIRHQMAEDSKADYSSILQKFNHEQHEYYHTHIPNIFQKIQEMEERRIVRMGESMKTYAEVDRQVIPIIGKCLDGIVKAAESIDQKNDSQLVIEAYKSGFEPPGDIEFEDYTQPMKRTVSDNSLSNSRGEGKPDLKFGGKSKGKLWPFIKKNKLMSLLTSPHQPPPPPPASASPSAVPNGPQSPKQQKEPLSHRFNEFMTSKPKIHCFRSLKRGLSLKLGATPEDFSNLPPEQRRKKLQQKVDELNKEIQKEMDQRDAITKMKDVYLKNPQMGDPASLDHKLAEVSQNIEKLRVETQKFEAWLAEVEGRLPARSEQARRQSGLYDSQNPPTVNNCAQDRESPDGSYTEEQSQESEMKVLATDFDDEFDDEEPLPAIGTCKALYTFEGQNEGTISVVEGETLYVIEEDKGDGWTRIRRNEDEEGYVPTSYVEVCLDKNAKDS
UniProt Q02790: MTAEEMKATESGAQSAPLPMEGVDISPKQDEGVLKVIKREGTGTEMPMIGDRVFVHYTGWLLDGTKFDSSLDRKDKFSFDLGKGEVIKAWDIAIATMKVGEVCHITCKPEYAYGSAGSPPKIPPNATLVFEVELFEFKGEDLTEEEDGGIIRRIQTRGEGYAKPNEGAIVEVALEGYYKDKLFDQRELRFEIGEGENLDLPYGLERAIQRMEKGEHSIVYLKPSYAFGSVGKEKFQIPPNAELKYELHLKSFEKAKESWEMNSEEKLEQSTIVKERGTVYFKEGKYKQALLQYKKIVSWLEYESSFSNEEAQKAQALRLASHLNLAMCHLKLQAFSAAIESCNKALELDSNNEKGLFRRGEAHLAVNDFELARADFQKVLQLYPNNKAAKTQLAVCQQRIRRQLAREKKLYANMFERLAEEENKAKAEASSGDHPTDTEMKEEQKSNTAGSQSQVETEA
UniProt Q14192: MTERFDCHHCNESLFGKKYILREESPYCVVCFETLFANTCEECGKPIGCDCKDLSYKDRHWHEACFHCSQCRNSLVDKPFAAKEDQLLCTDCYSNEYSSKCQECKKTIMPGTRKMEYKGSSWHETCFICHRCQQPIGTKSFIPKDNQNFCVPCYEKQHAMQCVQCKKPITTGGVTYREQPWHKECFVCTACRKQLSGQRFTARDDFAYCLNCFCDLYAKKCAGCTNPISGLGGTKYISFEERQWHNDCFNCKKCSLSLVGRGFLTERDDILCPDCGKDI
UniProt Q17RN3: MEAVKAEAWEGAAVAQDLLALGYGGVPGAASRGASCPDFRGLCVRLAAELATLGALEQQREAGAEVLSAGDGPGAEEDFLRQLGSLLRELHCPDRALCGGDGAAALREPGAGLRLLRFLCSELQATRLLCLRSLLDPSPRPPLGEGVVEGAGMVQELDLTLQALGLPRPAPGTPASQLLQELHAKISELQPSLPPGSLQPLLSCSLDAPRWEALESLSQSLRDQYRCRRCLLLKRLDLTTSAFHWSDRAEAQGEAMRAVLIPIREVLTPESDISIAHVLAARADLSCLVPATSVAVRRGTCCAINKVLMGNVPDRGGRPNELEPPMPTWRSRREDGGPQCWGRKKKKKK
UniProt Q96IG2: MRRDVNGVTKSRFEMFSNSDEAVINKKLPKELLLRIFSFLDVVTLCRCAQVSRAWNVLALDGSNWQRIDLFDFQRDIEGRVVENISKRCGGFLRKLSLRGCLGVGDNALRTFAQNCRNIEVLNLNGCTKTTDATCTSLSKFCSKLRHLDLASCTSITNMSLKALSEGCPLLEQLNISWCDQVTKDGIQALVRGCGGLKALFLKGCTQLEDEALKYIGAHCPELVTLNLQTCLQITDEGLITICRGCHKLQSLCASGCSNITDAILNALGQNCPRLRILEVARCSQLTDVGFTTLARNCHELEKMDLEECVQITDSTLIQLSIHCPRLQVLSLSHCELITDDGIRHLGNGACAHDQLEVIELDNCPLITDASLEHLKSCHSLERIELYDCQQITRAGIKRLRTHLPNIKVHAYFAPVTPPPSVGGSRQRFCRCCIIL
UniProt Q96ME1: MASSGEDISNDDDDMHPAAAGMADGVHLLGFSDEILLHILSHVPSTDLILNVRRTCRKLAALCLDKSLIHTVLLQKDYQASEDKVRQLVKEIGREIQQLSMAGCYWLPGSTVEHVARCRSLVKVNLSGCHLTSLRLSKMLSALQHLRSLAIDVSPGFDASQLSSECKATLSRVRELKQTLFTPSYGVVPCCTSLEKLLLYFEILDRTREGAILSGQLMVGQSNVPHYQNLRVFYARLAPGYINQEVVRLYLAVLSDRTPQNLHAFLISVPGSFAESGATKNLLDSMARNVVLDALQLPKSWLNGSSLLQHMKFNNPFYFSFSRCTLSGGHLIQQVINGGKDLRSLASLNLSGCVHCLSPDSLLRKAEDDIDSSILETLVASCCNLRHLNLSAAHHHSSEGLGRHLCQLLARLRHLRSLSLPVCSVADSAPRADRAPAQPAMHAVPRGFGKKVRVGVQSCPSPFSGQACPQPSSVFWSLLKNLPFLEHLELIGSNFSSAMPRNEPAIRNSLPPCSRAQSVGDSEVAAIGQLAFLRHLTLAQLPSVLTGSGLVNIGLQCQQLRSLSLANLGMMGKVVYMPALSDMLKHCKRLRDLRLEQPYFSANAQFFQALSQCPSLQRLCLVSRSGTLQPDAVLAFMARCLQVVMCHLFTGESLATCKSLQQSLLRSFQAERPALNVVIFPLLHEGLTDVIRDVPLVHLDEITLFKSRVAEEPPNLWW
UniProt Q9H479: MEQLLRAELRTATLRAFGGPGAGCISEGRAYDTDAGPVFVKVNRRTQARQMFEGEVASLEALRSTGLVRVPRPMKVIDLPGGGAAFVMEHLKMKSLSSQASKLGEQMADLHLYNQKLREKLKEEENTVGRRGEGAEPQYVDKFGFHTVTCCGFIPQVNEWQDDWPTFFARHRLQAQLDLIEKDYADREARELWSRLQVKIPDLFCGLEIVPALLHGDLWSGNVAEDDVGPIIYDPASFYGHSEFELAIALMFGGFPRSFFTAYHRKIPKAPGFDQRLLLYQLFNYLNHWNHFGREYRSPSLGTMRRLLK
UniProt P26885: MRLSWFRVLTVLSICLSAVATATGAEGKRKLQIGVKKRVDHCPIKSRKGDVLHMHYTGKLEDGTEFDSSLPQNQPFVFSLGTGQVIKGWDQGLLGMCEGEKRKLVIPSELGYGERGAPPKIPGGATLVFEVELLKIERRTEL
UniProt O95302: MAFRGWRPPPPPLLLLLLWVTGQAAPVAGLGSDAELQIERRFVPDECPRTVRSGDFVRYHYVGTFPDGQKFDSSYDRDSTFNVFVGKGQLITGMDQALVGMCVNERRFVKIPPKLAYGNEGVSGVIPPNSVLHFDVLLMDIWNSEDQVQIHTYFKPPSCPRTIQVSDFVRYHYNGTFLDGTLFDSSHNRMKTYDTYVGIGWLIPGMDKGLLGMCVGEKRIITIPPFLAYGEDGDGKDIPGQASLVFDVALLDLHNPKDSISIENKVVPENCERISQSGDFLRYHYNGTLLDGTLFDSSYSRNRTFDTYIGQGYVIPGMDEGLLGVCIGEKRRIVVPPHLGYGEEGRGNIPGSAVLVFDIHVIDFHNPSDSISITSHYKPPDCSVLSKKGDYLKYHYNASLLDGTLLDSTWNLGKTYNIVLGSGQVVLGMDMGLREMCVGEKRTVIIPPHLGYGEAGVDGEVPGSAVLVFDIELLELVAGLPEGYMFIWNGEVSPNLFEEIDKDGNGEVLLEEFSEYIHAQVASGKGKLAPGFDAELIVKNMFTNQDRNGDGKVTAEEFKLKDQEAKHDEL
UniProt P39748, whole entry, looked up: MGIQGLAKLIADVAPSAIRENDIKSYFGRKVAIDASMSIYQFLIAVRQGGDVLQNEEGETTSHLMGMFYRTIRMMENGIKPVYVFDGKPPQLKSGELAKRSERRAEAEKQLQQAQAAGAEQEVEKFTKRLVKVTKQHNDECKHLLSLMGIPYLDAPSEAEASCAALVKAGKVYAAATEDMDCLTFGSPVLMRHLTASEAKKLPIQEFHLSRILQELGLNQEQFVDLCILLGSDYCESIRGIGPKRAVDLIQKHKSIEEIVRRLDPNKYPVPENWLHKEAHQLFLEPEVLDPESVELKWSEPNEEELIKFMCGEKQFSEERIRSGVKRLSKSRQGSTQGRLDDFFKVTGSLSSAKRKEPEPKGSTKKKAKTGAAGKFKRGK
UniProt Q13045: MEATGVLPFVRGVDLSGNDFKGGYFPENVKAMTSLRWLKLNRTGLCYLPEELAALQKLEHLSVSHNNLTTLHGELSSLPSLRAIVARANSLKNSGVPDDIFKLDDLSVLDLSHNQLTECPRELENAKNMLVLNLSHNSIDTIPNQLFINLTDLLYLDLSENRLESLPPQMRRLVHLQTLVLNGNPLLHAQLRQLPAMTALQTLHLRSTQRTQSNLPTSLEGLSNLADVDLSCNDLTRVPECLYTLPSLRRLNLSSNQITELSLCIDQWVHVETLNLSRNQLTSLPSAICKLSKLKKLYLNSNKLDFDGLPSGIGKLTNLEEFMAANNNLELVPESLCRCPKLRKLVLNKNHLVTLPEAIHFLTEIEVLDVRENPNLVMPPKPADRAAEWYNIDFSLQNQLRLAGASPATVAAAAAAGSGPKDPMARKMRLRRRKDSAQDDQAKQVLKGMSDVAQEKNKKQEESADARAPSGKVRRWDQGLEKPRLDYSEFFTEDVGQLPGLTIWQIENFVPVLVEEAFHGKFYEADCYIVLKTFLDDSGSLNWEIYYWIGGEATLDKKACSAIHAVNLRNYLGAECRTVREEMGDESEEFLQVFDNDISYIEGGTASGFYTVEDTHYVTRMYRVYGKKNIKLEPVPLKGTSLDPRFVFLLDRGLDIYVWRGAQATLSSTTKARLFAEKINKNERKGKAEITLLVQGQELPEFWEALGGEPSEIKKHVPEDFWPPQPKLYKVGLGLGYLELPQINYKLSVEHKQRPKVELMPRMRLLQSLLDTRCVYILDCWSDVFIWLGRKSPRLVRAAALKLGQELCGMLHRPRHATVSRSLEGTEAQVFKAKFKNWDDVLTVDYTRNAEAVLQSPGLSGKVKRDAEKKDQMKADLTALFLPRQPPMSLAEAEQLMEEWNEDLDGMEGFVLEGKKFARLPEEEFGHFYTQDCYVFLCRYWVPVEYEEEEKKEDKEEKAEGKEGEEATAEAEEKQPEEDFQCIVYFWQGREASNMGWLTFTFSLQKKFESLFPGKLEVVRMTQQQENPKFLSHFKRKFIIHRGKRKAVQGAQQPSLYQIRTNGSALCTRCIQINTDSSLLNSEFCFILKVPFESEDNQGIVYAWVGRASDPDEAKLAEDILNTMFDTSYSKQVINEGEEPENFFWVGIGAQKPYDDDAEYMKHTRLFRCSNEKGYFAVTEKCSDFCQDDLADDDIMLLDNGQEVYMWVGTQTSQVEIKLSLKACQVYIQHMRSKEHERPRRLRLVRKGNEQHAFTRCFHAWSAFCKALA
UniProt O75955: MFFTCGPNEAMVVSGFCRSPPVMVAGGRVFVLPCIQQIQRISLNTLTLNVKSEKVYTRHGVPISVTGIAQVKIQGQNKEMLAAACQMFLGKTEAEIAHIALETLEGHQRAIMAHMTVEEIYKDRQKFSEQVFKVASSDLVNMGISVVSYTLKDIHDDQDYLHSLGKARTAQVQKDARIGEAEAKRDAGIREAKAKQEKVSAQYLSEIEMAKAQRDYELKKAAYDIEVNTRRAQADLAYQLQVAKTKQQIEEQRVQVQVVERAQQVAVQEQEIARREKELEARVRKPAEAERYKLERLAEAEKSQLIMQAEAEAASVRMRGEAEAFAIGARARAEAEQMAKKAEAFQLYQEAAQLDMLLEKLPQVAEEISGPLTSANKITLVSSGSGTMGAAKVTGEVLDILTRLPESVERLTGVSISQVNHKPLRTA
UniProt P14324: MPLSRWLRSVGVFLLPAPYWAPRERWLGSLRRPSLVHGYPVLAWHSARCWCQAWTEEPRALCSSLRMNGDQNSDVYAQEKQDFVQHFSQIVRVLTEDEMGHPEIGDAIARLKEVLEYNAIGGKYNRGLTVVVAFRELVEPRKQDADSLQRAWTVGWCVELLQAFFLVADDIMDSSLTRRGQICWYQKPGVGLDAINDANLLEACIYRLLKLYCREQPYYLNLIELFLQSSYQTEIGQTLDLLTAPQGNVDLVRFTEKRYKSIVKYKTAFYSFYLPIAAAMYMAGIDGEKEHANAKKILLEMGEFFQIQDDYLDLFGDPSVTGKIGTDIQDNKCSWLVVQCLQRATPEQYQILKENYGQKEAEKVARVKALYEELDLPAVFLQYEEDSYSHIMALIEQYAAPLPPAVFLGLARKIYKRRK

Key:
Assay in all cases: log2 fold change, soluble protein after heating vs DMSO (PISA); higher = thermal stabilisation; K562 lysate, 10 uM; active = over 0.2 and 3.5 SD of the protein, either way, in both replicates (recomputed)
[1] = compound: C#Cc1cccc(Nc2ncnc3cc(OCCOC)c(OCCOC)cc23)c1 [erlotinib]
Summary of the method: (§1)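 To prepare the extract, K562 pellets were dounce-homogenised in PBS pH 7.4 with 1 mM MgCl2, giving crude material at 1 mg/mL protein. This was treated with 10 μM compound for 30 min, then heated in aliquots for 3 min over 48°C-58°C before pooling and addition of NP-40 to 0.5% at 4°C. Centrifugation at 21,000xg for 90 min left soluble protein in the supernatant, which TMTpro 16plex LC-MS/MS quantified with equalised channel sums. Results are log-two fold changes in thermal stability compared with solvent controls, from duplicates.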

[2] = compound: C/C(=N\NC(=O)C1=CC(=CC=C1)S(=O)(=O)N2CCOCC2)/C3=C(C=CC(=C3)Cl)O
Summary of the method: as §1

[3] = compound: C1=CC(=CC=C1C2=NC3=C(N2)C=C(C=C3)C(=O)N)OC4=CC=C(C=C4)Cl
Summary of the method: as §1

[4] = compound: C1=CC2=C(C=CC(=C2)/C=C\3/C(=O)NC(=NCC4=CC=CS4)S3)N=C1
Summary of the method: as §1

[5] = compound: C1=CC2=NC=CN=C2C=C1/C=C/3\C(=O)NC(=O)S3
Summary of the method: as §1

[6] = compound: C1=CC=C(C=C1)C2=NC(=C(N2)C3=CC=NC=C3)C4=CC(=C(C=C4)Cl)O
Summary of the method: as §1

[7] = compound: C1=CC=C2C(=C1)C3=NNC4=CC=CC(=C43)C2=O
Summary of the method: as §1

[8] = compound: C1CCN(C1)C(=O)NC2=CC=CC(=C2)NC3=NC=C(C(=N3)NCCC4=CN=CN4)Br
Summary of the method: as §1

[9] = compound: C1CN(CCC1(CC2=CC=C(C=C2)Cl)N)C3=NC=NC4=C3C=CN4
Summary of the method: as §1

[10] = compound: C1COCCN1CCN2C3=CC=CC=C3N=C2NC(=O)C4=CC(=CC=C4)[N+](=O)[O-] [IRAK-1-4 Inhibitor I]
Summary of the method: as §1

[11] = compound: C=CC(=O)N1CCC[C@@H](n2nc(-c3ccc(Oc4ccccc4)cc3)c3c(N)ncnc32)C1 [ibrutinib]
Summary of the method: as §1

[12] = compound: CC(=O)c1cnc2ccc(-c3cc(Cl)c(O)c(Cl)c3)nc2c1N[C@H]1CC[C@H](CN(C)C)CC1
Summary of the method: as §1

[13] = compound: CC(C)(C)Cn1c(N)nc2ccc(-c3[nH]c(C(C)(C)C)nc3-c3ccc(F)cc3)nc21 [ralimetinib]
Summary of the method: as §1

[14] = compound: CC(C)(O)CC(=O)NCCn1ccc2ncnc(Nc3ccc(Oc4cccc(C(F)(F)F)c4)c(Cl)c3)c21
Summary of the method: as §1

[15] = compound: CC(C)C1=C2N=C(C=C(N2N=C1)NCC3=CC=CC=C3)NCCCCCCN
Summary of the method: as §1

[16] = compound: CC1=C(C(CC(=O)N1)C2=CC=C(C=C2)C(F)(F)F)C(=O)NC3=C(C=C4C(=C3)C=NN4)F
Summary of the method: as §1

[17] = compound: CC1=C(C2=C(C=C1)C(=O)C3=CC=CC=C3N2CCCN)C
Summary of the method: as §1

[18] = compound: CC1=C(C=C(C=C1)NC(=O)C2=CC(=CC=C2)C(C)(C)C#N)NC3=CC4=C(C=C3)N=CN(C4=O)C
Summary of the method: as §1

[19] = compound: CC1=C(C=C(C=C1)NC(=O)C2=CC(=CC=C2)N(C)C)NC(=O)C3=CC=C(C=C3)O
Summary of the method: as §1

[20] = compound: CC1=CC=C(C=C1)SC2=C3C=C(SC3=CN=C2)C(=O)N
Summary of the method: as §1

Measured: log2 fold change

FBXO3 (UniProt Q9UK99)
inactive: [1] -0.043 | [2] 0.041 | [3] 0.119 | [4] 0.015 | [5] 0.012 | [6] -0.024 | [7] -0.048 | [8] -0.008 | [9] 0.038 | [10] -0.012 | [11] 0.029 | [12] 0.003 | [13] -0.025 | [14] 0.024 | [15] -0.032 | [16] 0.049 | [17] 0.008 | [18] -0.054 | [19] 0.012 | [20] -0.033

FNBP1 (UniProt Q96RU3)
inactive: [1] 0.088 | [2] -0.152 | [3] 0.069 | [4] -0.037 | [5] -0.047 | [6] -0.047 | [7] 0.011 | [8] -0.001 | [9] -0.042 | [10] -0.009 | [11] -0.131 | [12] 0.028 | [13] 0.034 | [14] 0.037 | [15] 0.036 | [16] -0.102 | [17] -0.068 | [18] -0.074 | [19] -0.021 | [20] 0.025

FKBP4 (UniProt Q02790)
inactive: [1] -0.014 | [2] 0.04 | [3] -0.018 | [4] 0.002 | [5] -0.007 | [6] 0.004 | [7] 0.028 | [8] 0.002 | [9] 0.011 | [10] -0.003 | [11] -0.017 | [12] -0.011 | [13] 0.004 | [14] 0 | [15] -0.01 | [16] -0.012 | [17] 0.027 | [18] -0.011 | [19] -0.009 | [20] 0.005

FLNB isoform 8 (UniProt O75369)
inactive: [1] 0.003 | [2] 0.006 | [3] 0.013 | [4] 0 | [5] -0.002 | [6] -0.009 | [7] 0.01 | [8] -0.008 | [9] 0.001 | [10] 0.008 | [11] 0.016 | [12] -0.01 | [13] 0.001 | [14] -0.009 | [15] -0.008 | [16] -0.007 | [17] 0.026 | [18] 0.02 | [19] 0 | [20] -0.011

FHL2 (UniProt Q14192)
inactive: [1] 0.005 | [2] -0.009 | [3] 0.07 | [4] -0.014 | [5] -0.015 | [6] -0.053 | [7] -0.008 | [8] -0.035 | [9] -0.005 | [10] -0.002 | [11] 0.008 | [12] 0 | [13] 0.012 | [14] -0.053 | [15] -0.036 | [16] 0 | [17] -0.013 | [18] 0.18 | [19] 0.004 | [20] 0.002

Two entries picked at random from the list so far, as already listed:
FNBP1 (UniProt Q96RU3)
inactive: [1] 0.088 | [2] -0.152 | [3] 0.069 | [4] -0.037 | [5] -0.047 | [6] -0.047 | [7] 0.011 | [8] -0.001 | [9] -0.042 | [10] -0.009 | [11] -0.131 | [12] 0.028 | [13] 0.034 | [14] 0.037 | [15] 0.036 | [16] -0.102 | [17] -0.068 | [18] -0.074 | [19] -0.021 | [20] 0.025

FLNB isoform 8 (UniProt O75369)
inactive: [1] 0.003 | [2] 0.006 | [3] 0.013 | [4] 0 | [5] -0.002 | [6] -0.009 | [7] 0.01 | [8] -0.008 | [9] 0.001 | [10] 0.008 | [11] 0.016 | [12] -0.01 | [13] 0.001 | [14] -0.009 | [15] -0.008 | [16] -0.007 | [17] 0.026 | [18] 0.02 | [19] 0 | [20] -0.011

More records:

FAM98C (UniProt Q17RN3)
inactive: [1] 0.074 | [2] 0.024 | [3] 0.007 | [4] 0.004 | [5] 0.059 | [6] -0.064 | [7] -0.044 | [8] 0.074 | [9] 0.107 | [10] -0.027 | [11] 0.172 | [12] 0.032 | [13] -0.133 | [14] -0.08 | [15] -0.026 | [16] 0.078 | [17] -0.108 | [18] 0.058 | [19] 0.022 | [20] -0.04

FBXL20 (UniProt Q96IG2)
inactive: [1] 0 | [2] -0.034 | [3] 0.047 | [4] 0.013 | [5] -0.081 | [6] -0.063 | [7] -0.047 | [8] -0.025 | [9] 0.041 | [10] 0.017 | [11] 0.046 | [12] -0.026 | [13] -0.014 | [14] 0 | [15] -0.01 | [16] -0.067 | [17] -0.01 | [18] 0.013 | [19] 0.027 | [20] -0.032

FBXL18 isoform 4 (UniProt Q96ME1)
inactive: [1] 0.007 | [2] -0.034 | [3] 0.035 | [4] -0.058 | [5] -0.029 | [6] 0.011 | [7] -0.005 | [8] -0.007 | [9] 0.036 | [10] 0.025 | [11] -0.008 | [12] 0.015 | [13] -0.005 | [14] -0.023 | [15] -0.015 | [16] 0.006 | [17] -0.028 | [18] -0.029 | [19] 0.013 | [20] -0.001

FN3K (UniProt Q9H479)
inactive: [1] 0 | [2] 0.028 | [3] 0.047 | [4] -0.005 | [5] 0 | [6] 0.019 | [7] -0.007 | [8] 0.015 | [9] -0.001 | [10] 0.001 | [11] -0.003 | [12] -0.009 | [13] -0.001 | [14] 0.013 | [15] -0.015 | [16] -0.003 | [17] 0.002 | [18] 0.021 | [19] 0.003 | [20] 0.031

FKBP2 (UniProt P26885)
inactive: [1] 0.021 | [2] -0.014 | [3] -0.023 | [4] -0.084 | [5] -0.03 | [6] 0.01 | [7] 0.03 | [8] 0.006 | [9] 0.005 | [10] 0.03 | [11] -0.028 | [12] -0.022 | [13] 0.018 | [14] 0.025 | [15] 0.009 | [16] 0.015 | [17] 0.005 | [18] -0.053 | [19] -0.027 | [20] -0.028

FKBP9 (UniProt O95302)
inactive: [1] -0.048 | [2] 0.018 | [3] 0.011 | [4] 0.029 | [5] 0.003 | [6] -0.008 | [7] -0.009 | [8] -0.009 | [9] 0.022 | [10] -0.027 | [11] 0.062 | [12] -0.002 | [13] 0.036 | [14] -0.011 | [15] -0.004 | [16] 0.006 | [17] 0.025 | [18] -0.023 | [19] 0.024 | [20] -0.039

FEN1 (UniProt P39748)
inactive: [1] -0.025 | [2] 0.022 | [3] -0.06 | [4] 0.018 | [5] -0.005 | [6] -0.027 | [7] 0.013 | [8] -0.005 | [9] -0.016 | [10] 0.033 | [11] 0.025 | [12] 0.026 | [13] 0.063 | [14] -0.034 | [15] 0.022 | [16] -0.016 | [17] 0.022 | [18] 0.002 | [19] 0.022 | [20] 0.039

FLII (UniProt Q13045)
inactive: [1] 0.009 | [2] 0.013 | [3] -0.012 | [4] -0.042 | [5] -0.005 | [6] 0.005 | [7] 0.002 | [8] 0.001 | [9] -0.027 | [10] -0.023 | [11] -0.012 | [12] 0.017 | [13] -0.001 | [14] 0.012 | [15] 0.007 | [16] -0.006 | [17] -0.019 | [18] 0.013 | [19] 0.018 | [20] 0.005

FKBPL (UniProt Q9UIM3)
inactive: [1] 0.009 | [2] 0.001 | [3] 0.051 | [4] -0.02 | [5] 0.013 | [6] 0.039 | [7] 0.01 | [8] -0.016 | [9] -0.006 | [10] 0.012 | [11] 0.04 | [12] 0.011 | [13] -0.005 | [14] 0.032 | [15] 0.013 | [16] 0.027 | [17] -0.083 | [18] -0.003 | [19] -0.033 | [20] -0.025

FLOT1 (UniProt O75955)
inactive: [1] 0.005 | [2] -0.022 | [3] -0.005 | [4] -0.003 | [5] -0.005 | [6] 0.011 | [7] -0.035 | [8] -0.009 | [9] 0.024 | [10] 0.01 | [11] -0.005 | [12] 0.005 | [13] -0.013 | [14] -0.032 | [15] -0.009 | [16] -0.002 | [17] -0.003 | [18] 0.013 | [19] -0.008 | [20] -0.025

FDPS (UniProt P14324)
inactive: [1] 0.042 | [2] 0.082 | [3] -0.029 | [4] 0.025 | [5] -0.006 | [6] 0.001 | [7] 0 | [8] 0.001 | [9] 0.019 | [10] 0.051 | [11] 0.005 | [12] 0.016 | [13] -0.008 | [14] -0.01 | [15] 0.004 | [16] -0.046 | [17] 0.023 | [18] 0.04 | [19] 0.045 | [20] 0.032
